{"sequences": {"note": "Amino acid sequences for entries named in this document (tags omitted). A change or cut given only in a name is not applied to a line headed by its entry.", "UniProt P63167, whole entry": "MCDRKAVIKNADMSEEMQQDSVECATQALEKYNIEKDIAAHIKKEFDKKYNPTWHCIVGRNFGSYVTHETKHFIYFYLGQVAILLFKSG", "UniProt P62258": "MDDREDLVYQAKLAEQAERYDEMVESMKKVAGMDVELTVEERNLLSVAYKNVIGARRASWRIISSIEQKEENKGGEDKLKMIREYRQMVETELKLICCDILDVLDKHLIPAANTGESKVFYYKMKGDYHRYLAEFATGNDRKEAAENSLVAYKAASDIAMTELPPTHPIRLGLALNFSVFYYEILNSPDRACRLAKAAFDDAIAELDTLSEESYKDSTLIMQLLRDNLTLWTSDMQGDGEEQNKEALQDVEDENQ", "UniProt Q03154": "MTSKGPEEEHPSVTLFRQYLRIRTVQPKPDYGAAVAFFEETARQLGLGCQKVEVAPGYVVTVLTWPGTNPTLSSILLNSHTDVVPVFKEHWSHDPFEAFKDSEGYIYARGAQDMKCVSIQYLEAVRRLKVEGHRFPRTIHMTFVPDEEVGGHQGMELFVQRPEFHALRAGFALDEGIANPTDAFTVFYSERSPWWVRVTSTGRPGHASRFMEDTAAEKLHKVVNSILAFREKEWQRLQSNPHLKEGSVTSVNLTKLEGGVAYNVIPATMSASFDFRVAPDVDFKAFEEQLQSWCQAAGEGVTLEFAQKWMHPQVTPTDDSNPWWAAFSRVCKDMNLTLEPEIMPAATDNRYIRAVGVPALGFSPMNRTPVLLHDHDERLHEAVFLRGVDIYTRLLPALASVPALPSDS", "UniProt P58557": "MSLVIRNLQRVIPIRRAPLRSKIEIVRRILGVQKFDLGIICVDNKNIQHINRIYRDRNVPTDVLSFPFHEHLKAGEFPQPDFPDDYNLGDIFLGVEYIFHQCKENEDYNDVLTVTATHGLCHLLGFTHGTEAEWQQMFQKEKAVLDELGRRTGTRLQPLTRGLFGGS", "UniProt P56182": "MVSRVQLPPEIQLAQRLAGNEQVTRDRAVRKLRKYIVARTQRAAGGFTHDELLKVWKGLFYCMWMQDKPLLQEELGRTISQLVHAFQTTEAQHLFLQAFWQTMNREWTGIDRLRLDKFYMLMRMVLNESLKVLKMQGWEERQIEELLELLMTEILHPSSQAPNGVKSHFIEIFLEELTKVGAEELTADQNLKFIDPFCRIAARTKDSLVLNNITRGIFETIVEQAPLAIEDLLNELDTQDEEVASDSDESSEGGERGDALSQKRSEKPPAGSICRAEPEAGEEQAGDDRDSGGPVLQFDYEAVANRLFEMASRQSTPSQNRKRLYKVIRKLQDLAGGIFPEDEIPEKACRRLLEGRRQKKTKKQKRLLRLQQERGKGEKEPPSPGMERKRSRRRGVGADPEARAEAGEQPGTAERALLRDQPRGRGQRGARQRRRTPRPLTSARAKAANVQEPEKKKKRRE", "UniProt P55795": "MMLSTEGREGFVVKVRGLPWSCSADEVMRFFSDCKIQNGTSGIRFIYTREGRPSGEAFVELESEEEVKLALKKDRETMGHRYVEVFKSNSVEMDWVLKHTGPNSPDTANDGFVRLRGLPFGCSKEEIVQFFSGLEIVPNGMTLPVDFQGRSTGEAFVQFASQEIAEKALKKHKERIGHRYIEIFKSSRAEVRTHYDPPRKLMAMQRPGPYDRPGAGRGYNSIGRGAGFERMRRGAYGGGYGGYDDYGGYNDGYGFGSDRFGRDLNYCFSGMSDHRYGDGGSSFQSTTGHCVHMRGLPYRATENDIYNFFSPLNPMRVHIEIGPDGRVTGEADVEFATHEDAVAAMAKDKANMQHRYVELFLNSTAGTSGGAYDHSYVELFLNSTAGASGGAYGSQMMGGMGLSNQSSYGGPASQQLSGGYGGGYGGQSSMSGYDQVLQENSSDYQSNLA", "UniProt P62140, whole entry": "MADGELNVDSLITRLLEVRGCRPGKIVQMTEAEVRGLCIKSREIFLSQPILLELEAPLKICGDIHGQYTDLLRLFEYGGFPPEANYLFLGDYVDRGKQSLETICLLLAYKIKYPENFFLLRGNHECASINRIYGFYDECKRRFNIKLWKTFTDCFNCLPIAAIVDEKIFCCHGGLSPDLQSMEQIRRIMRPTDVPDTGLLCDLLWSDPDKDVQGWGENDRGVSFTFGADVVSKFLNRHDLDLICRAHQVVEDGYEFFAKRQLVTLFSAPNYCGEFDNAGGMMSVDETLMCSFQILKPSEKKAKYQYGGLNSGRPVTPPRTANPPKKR", "UniProt P78527, whole entry": "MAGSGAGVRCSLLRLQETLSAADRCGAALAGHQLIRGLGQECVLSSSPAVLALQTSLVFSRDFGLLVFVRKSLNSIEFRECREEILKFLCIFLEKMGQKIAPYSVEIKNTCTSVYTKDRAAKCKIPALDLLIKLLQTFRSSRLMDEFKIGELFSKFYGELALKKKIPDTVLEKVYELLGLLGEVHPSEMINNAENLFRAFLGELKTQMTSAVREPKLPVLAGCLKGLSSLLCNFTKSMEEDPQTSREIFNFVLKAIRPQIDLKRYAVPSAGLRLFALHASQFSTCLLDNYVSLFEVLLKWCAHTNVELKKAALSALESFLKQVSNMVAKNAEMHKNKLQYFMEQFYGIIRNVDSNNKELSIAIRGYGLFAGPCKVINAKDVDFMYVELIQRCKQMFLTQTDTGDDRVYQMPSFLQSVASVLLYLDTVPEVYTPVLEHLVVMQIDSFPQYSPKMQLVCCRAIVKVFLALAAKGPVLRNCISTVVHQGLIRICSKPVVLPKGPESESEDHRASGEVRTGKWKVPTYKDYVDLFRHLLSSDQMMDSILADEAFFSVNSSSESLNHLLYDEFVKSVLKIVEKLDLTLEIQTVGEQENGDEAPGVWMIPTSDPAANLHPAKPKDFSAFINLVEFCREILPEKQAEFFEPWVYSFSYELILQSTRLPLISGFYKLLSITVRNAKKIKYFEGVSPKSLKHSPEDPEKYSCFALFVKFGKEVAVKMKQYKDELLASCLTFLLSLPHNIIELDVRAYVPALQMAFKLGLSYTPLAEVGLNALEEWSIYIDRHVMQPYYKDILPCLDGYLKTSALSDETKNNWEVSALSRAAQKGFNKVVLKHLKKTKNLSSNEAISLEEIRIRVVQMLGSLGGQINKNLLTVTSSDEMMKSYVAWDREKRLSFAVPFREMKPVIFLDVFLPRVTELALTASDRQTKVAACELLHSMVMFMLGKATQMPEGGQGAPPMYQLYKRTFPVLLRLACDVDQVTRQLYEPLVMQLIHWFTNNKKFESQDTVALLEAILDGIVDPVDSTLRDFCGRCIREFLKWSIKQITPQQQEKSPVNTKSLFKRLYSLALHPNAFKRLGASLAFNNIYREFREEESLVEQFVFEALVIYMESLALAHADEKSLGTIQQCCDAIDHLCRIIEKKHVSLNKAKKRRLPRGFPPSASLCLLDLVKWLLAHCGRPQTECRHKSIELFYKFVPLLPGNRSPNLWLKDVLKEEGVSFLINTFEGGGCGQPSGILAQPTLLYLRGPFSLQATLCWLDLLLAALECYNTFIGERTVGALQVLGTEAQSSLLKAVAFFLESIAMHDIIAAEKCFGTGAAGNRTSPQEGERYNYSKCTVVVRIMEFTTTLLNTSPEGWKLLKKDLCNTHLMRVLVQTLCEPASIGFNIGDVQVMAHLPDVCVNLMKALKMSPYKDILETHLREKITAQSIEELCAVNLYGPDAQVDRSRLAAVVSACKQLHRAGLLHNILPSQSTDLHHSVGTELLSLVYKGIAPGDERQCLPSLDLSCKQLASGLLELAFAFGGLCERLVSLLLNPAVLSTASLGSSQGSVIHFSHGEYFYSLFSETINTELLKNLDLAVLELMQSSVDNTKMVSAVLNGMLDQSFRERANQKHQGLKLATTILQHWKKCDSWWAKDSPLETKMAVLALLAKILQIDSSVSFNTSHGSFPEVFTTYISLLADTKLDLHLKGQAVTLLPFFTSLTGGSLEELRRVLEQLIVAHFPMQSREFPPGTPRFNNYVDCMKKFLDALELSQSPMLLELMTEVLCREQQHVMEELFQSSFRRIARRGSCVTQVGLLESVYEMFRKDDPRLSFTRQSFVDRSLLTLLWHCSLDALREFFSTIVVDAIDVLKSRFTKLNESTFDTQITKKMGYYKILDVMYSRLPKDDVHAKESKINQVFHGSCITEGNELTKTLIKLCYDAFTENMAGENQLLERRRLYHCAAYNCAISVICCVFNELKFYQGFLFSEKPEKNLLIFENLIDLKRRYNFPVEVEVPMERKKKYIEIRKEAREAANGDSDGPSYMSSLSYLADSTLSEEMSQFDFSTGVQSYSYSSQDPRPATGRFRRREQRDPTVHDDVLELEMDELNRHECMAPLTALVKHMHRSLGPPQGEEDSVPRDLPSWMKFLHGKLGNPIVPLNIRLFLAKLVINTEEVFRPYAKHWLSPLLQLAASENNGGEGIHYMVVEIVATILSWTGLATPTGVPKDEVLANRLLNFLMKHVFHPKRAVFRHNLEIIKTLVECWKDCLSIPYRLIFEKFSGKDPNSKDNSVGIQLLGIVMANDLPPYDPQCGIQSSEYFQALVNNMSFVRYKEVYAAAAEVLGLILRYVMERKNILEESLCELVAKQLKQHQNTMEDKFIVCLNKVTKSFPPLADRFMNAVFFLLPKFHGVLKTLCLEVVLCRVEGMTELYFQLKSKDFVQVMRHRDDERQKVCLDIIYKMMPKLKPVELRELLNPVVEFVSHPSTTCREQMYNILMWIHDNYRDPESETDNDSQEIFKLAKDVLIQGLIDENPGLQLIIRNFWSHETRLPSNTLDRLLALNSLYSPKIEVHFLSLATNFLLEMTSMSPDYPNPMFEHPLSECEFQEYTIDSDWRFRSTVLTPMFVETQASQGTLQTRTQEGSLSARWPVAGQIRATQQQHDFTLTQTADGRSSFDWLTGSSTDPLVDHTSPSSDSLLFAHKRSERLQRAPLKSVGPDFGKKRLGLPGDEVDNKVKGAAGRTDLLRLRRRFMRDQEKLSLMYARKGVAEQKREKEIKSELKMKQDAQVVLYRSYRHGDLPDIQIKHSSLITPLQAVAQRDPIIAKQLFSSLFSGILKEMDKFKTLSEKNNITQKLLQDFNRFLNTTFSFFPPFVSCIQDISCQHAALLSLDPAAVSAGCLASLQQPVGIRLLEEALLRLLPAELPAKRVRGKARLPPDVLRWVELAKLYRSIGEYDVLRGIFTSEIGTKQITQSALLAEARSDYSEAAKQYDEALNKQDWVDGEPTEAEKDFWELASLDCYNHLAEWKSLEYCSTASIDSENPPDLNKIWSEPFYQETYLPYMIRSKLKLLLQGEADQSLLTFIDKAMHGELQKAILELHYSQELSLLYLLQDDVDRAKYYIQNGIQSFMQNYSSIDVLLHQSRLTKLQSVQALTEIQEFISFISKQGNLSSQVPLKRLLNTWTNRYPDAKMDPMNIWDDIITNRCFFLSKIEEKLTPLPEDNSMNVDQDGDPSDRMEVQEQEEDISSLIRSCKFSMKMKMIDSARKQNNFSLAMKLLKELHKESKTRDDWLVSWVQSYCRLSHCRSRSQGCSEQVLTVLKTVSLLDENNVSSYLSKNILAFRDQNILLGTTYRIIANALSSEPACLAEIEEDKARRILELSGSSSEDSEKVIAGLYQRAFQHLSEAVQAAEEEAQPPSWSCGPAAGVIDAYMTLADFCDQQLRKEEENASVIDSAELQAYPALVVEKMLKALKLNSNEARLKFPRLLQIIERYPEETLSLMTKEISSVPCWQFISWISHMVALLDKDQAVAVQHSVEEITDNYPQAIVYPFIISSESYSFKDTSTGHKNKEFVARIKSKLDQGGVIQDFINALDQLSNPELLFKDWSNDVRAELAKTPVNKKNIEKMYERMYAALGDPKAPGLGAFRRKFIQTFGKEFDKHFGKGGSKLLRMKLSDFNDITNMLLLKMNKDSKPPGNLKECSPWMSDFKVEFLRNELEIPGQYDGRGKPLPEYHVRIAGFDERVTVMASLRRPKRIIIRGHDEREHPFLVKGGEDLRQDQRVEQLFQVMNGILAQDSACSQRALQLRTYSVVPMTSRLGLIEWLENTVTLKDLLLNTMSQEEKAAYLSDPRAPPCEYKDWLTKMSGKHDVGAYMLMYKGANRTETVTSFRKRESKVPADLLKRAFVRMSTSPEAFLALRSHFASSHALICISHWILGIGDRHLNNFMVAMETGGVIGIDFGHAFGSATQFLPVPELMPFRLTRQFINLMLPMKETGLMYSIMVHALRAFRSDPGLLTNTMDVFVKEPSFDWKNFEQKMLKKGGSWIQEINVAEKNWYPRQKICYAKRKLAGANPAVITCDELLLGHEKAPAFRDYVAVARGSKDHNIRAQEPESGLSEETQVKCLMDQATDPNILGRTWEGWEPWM", "UniProt P58546, whole entry": "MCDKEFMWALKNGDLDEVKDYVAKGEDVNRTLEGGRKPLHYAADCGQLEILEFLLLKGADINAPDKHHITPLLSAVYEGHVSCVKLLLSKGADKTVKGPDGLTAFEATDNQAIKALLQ", "UniProt P62937, whole entry, looked up": "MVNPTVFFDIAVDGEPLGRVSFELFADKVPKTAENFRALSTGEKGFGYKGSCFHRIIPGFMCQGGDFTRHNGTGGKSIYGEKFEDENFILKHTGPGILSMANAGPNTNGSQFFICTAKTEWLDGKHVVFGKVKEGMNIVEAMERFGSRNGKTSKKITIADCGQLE"}, "source": "the supplement of paper PMC6411743", "compound": "Nc1ncnc2c1ncn2[C@@H]1O[C@H](COP(=O)(O)OP(=O)(O)NP(=O)(O)O)[C@@H](O)[C@H]1O [adenylyl imidodiphosphate]", "test": "NP40-soluble protein abundance relative to vehicle (solubility fold change) (ratio); higher = more soluble protein in presence of AMP-PNP", "summary_of_the_method": "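Each value is a fold change relative to the detergent-processed vehicle, calculated per replicate from vsn-normalised intensities. Jurkat crude lysate received eight concentrations (0.1 to 10 mM) for 10 min at room temperature and 3 min at 37 °C, then was solubilised in 0.8% NP40 with benzonase (60 min, 4 °C). The ultracentrifuged supernatant was TMT-labelled and run by LC-MS/MS in three independent experiments.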", "note": "± gives the standard deviation of the averaged measurements. The list shows a part of the results, in another mix than the full data. Most entries show no effect beyond the scatter of the controls.", "data": [{"target": "OGDH (UniProt Q02218)", "values": [{"measurement": "NP40-soluble protein abundance", "setting": "concentration: 0.1mM", "value": "1.019 ± 0.01"}, {"measurement": "NP40-soluble protein abundance", "setting": "concentration: 0.5mM", "value": "1.01 ± 0.059"}]}, {"target": "UniProt Q05655", "values": [{"measurement": "NP40-soluble protein abundance", "setting": "concentration: 0.1mM", "value": "1.007 ± 0.0044"}, {"measurement": "NP40-soluble protein abundance", "setting": "concentration: 0.5mM", "value": "1.01 ± 0.034"}]}, {"target": "CDK5 (UniProt Q00535)", "values": [{"measurement": "NP40-soluble protein abundance", "setting": "concentration: 0.1mM", "value": "0.976 ± 0.033"}, {"measurement": "NP40-soluble protein abundance", "setting": "concentration: 0.5mM", "value": "0.975 ± 0.036"}]}, {"target": "UniProt P63167", "values": [{"measurement": "NP40-soluble protein abundance", "setting": "concentration: 0.1mM", "value": "1.01 ± 0.06"}, {"measurement": "NP40-soluble protein abundance", "setting": "concentration: 0.5mM", "value": "1.08 ± 0.058"}]}, {"target": "RING1 (UniProt Q06587)", "values": [{"measurement": "NP40-soluble protein abundance", "setting": "concentration: 0.1mM", "value": "1.01 ± 0.065"}, {"measurement": "NP40-soluble protein abundance", "setting": "concentration: 0.5mM", "value": "1.04 ± 0.057"}]}, {"target": "GRB2 (UniProt P62993)", "values": [{"measurement": "NP40-soluble protein abundance", "setting": "concentration: 0.1mM", "value": "0.99 ± 0.053"}, {"measurement": "NP40-soluble protein abundance", "setting": "concentration: 0.5mM", "value": "0.994 ± 0.05"}]}, {"target": "UniProt P56181 and related entries", "values": [{"measurement": "NP40-soluble protein abundance", "setting": "concentration: 0.1mM", "value": "0.973 ± 0.021"}, {"measurement": "NP40-soluble protein abundance", "setting": "concentration: 0.5mM", "value": "1.02 ± 0.081"}]}, {"target": "UniProt P61978-2|P61978-3", "values": [{"measurement": "NP40-soluble protein abundance", "setting": "concentration: 0.1mM", "value": "0.996 ± 0.052"}, {"measurement": "NP40-soluble protein abundance", "setting": "concentration: 0.5mM", "value": "1.03 ± 0.045"}]}, {"target": "UniProt P55789 and related entries", "values": [{"measurement": "NP40-soluble protein abundance", "setting": "concentration: 0.1mM", "value": "1.05 ± 0.088"}, {"measurement": "NP40-soluble protein abundance", "setting": "concentration: 0.5mM", "value": "1.01 ± 0.12"}]}, {"target": "UniProt P62258", "values": [{"measurement": "NP40-soluble protein abundance", "setting": "concentration: 0.1mM", "value": "0.985 ± 0.033"}, {"measurement": "NP40-soluble protein abundance", "setting": "concentration: 0.5mM", "value": "1.02 ± 0.078"}]}, {"target": "ACY1 (UniProt Q03154)", "values": [{"measurement": "NP40-soluble protein abundance", "setting": "concentration: 0.1mM", "value": "1.05 ± 0.023"}, {"measurement": "NP40-soluble protein abundance", "setting": "concentration: 0.5mM", "value": "1 ± 0.055"}]}, {"target": "UniProt P62277", "values": [{"measurement": "NP40-soluble protein abundance", "setting": "concentration: 0.1mM", "value": "1.04 ± 0.054"}, {"measurement": "NP40-soluble protein abundance", "setting": "concentration: 0.5mM", "value": "1 ± 0.068"}]}, {"target": "UniProt P84085", "values": [{"measurement": "NP40-soluble protein abundance", "setting": "concentration: 0.1mM", "value": "1.022 ± 0.0065"}, {"measurement": "NP40-soluble protein abundance", "setting": "concentration: 0.5mM", "value": "0.989 ± 0.055"}]}, {"target": "FLI1 (UniProt Q01543)", "values": [{"measurement": "NP40-soluble protein abundance", "setting": "concentration: 0.1mM", "value": "0.991 ± 0.016"}, {"measurement": "NP40-soluble protein abundance", "setting": "concentration: 0.5mM", "value": "1.02 ± 0.05"}]}, {"target": "YBEY (UniProt P58557)", "values": [{"measurement": "NP40-soluble protein abundance", "setting": "concentration: 0.1mM", "value": "1.01 ± 0.058"}, {"measurement": "NP40-soluble protein abundance", "setting": "concentration: 0.5mM", "value": "0.9967 ± 0.0094"}]}, {"target": "RRP1 (UniProt P56182)", "values": [{"measurement": "NP40-soluble protein abundance", "setting": "concentration: 0.1mM", "value": "1.02 ± 0.011"}, {"measurement": "NP40-soluble protein abundance", "setting": "concentration: 0.5mM", "value": "1.01 ± 0.044"}]}, {"target": "HNRNPH2 (UniProt P55795)", "values": [{"measurement": "NP40-soluble protein abundance", "setting": "concentration: 0.1mM", "value": "0.9975 ± 0.0027"}, {"measurement": "NP40-soluble protein abundance", "setting": "concentration: 0.5mM", "value": "1.01 ± 0.04"}]}, {"target": "UniProt P62140", "values": [{"measurement": "NP40-soluble protein abundance", "setting": "concentration: 0.1mM", "value": "1.06 ± 0.017"}, {"measurement": "NP40-soluble protein abundance", "setting": "concentration: 0.5mM", "value": "1.02 ± 0.043"}]}, {"target": "UniProt Q02078-2|Q02078-4|Q02078-6|Q02078-5", "values": [{"measurement": "NP40-soluble protein abundance", "setting": "concentration: 0.1mM", "value": "1.02 ± 0.016"}, {"measurement": "NP40-soluble protein abundance", "setting": "concentration: 0.5mM", "value": "0.9826 ± 0.0064"}]}, {"target": "ADAM17 (UniProt P78536)", "values": [{"measurement": "NP40-soluble protein abundance", "setting": "concentration: 0.1mM", "value": "0.975 ± 0.019"}, {"measurement": "NP40-soluble protein abundance", "setting": "concentration: 0.5mM", "value": "0.994 ± 0.031"}]}, {"target": "RBM3 (UniProt P98179)", "values": [{"measurement": "NP40-soluble protein abundance", "setting": "concentration: 0.1mM", "value": "0.983 ± 0.068"}, {"measurement": "NP40-soluble protein abundance", "setting": "concentration: 0.5mM", "value": "0.971 ± 0.058"}]}, {"target": "UniProt P78527", "values": [{"measurement": "NP40-soluble protein abundance", "setting": "concentration: 0.1mM", "value": "1.08 ± 0.054"}, {"measurement": "NP40-soluble protein abundance", "setting": "concentration: 0.5mM", "value": "1.03 ± 0.14"}]}, {"target": "MTPN (UniProt P58546)", "values": [{"measurement": "NP40-soluble protein abundance", "setting": "concentration: 0.1mM", "value": "0.919 ± 0.033"}, {"measurement": "NP40-soluble protein abundance", "setting": "concentration: 0.5mM", "value": "0.984 ± 0.11"}]}, {"target": "UniProt P62995 and related entries", "values": [{"measurement": "NP40-soluble protein abundance", "setting": "concentration: 0.1mM", "value": "1.03 ± 0.065"}, {"measurement": "NP40-soluble protein abundance", "setting": "concentration: 0.5mM", "value": "1.04 ± 0.092"}]}, {"target": "UniProt P62877", "values": [{"measurement": "NP40-soluble protein abundance", "setting": "concentration: 0.1mM", "value": "0.984 ± 0.034"}, {"measurement": "NP40-soluble protein abundance", "setting": "concentration: 0.5mM", "value": "1.03 ± 0.033"}]}, {"target": "LRP1 (UniProt Q07954)", "values": [{"measurement": "NP40-soluble protein abundance", "setting": "concentration: 0.1mM", "value": "0.975 ± 0.014"}, {"measurement": "NP40-soluble protein abundance", "setting": "concentration: 0.5mM", "value": "0.966 ± 0.027"}]}, {"target": "UniProt P60763", "values": [{"measurement": "NP40-soluble protein abundance", "setting": "concentration: 0.1mM", "value": "1.02 ± 0.089"}, {"measurement": "NP40-soluble protein abundance", "setting": "concentration: 0.5mM", "value": "1.07 ± 0.038"}]}, {"target": "UniProt Q02086 and related entries", "values": [{"measurement": "NP40-soluble protein abundance", "setting": "concentration: 0.1mM", "value": "1 ± 0.023"}, {"measurement": "NP40-soluble protein abundance", "setting": "concentration: 0.5mM", "value": "1.01 ± 0.013"}]}, {"target": "UniProt P61009", "values": [{"measurement": "NP40-soluble protein abundance", "setting": "concentration: 0.1mM", "value": "1.06 ± 0.11"}, {"measurement": "NP40-soluble protein abundance", "setting": "concentration: 0.5mM", "value": "1.09 ± 0.12"}]}, {"target": "UniProt P62937 and related entries", "values": [{"measurement": "NP40-soluble protein abundance", "setting": "concentration: 0.1mM", "value": "1.05 ± 0.27"}, {"measurement": "NP40-soluble protein abundance", "setting": "concentration: 0.5mM", "value": "0.883 ± 0.14"}]}, {"target": "RPL7A (UniProt P62424)", "values": [{"measurement": "NP40-soluble protein abundance", "setting": "concentration: 0.1mM", "value": "1.03 ± 0.039"}, {"measurement": "NP40-soluble protein abundance", "setting": "concentration: 0.5mM", "value": "0.991 ± 0.036"}]}, {"target": "UniProt P62273", "values": [{"measurement": "NP40-soluble protein abundance", "setting": "concentration: 0.1mM", "value": "1.06 ± 0.059"}, {"measurement": "NP40-soluble protein abundance", "setting": "concentration: 0.5mM", "value": "1.032 ± 0.0065"}]}]}
